Data taken from PubChem BioAssay AID588497 (NMMLSC, 2011).
The campaign covered roughly 360,000 compounds. About 780 (0.22%) were called active. This list was built around the results that the source calls inconclusive (neither active nor inactive); the mix of calls is not that of the screen. Cut-off read from the data, not from the text of the source: active = inhibition above about 35% (passing the limit was not always enough); inconclusive = no clear call, values can overlap the other calls.

Test system: Botulinum neurotoxin type F light chain protease (Clostridium botulinum)
Assay: BoNT/F light chain protease inhibitors, primary screen, biochemical, flow cytometry, MLPCN library (AID 588497); note: plate controls were buffer without enzyme for full effect and enzyme alone for no effect
Settings: Multiplex microsphere protease cleavage assay, at 10 µM, active compounds read high

Compound | inhibition
Cc1nc2ccccc2c(=O)n1Cc1ccco1 | inconclusive: -82.3%
CC(=O)NC1(C(F)(F)F)C(=O)Nc2c1c(=O)[nH]c(=O)n2Cc1ccco1 (configuration not stated) | inactive: -3.2%
Cn1c(=O)c2sccc2n(Cc2cccc(Br)c2)c1=O | inconclusive: -20.2%
CC1(C)Cc2nc(-c3ccccc3)nc(NNC(=O)c3ccco3)c2CO1 | inconclusive: 63.3%
CC(=O)NCCC(=O)N1CCCC(N2CCN(c3cccc(Cl)c3)CC2)C1 (configuration not stated) | active: 41.7%
O=C(COC(=O)c1ccccn1)NC1CCCCC1 | inconclusive: 17.1%
COc1ccc(C(=O)C(C)[n+]2ccc(C)c3ccccc32)cc1[N+](=O)[O-] (configuration not stated) | inconclusive: -63.1%
CCOC(=O)CN1C(=O)S/C(=C\c2ccc(-c3ccc(C(=O)O)c(Cl)c3)o2)C1=O | inconclusive: 27.7%
O=C(c1ccc(Cl)c([N+](=O)[O-])c1)N1CCCc2ccccc21 | inconclusive: -19.6%
COc1ccc(CCN2C(=O)C3C4C=CC(C3C2=O)C2C(=O)N(CCc3ccc(OC)c(OC)c3)C(=O)C42)cc1OC (configuration not stated) | inactive: 1.6%
C/C(=N\NC(=O)C(O)c1ccccc1)c1ccc(C)s1 (configuration not stated) | inconclusive: 2.1%
CC1(c2ccccc2)NC(=O)N(CC(=O)Nc2ccc(N3CCOCC3)cc2)C1=O (configuration not stated) | inactive: 0.2%
CC(C)CCC(C)N=Cc1c(O)n(Cc2ccccc2)c(=O)c2ccccc12 (configuration not stated) | inactive: -6.1%
Cn1nc(C(C)(C)C)c([N+](=O)[O-])c1C(=O)Nc1ccc(Br)cc1 | inconclusive: -22.9%
COc1cc(OC)c(OC)cc1CN1CCN(Cc2ccc(C(F)(F)F)cc2)CC1 | inconclusive: -2%
COc1ccc2nc3n(c(=O)c2c1)-c1ncccc1C(=O)NC3Cc1ccccc1 (configuration not stated) | inactive: -6.9%
CC(C)CC(=O)NC(=S)Nc1ccccc1N1CCCC1 | inconclusive: -9.4%
O=C(Nc1ccccc1F)c1ccccc1C(=O)Nc1ccccc1F | inconclusive: 77.6%
O=C(C1CCCN(Cc2ccccc2F)C1)N1CCCC1 (configuration not stated) | inconclusive: -0.8%

10 of these compounds in a different format.
Compound,inhibition
CCOC(=O)CN1C(=O)S/C(=C\c2ccc(-c3ccc(C(=O)O)c(Cl)c3)o2)C1=O,inconclusive: 27.7%
O=C(c1ccc(Cl)c([N+](=O)[O-])c1)N1CCCc2ccccc21,inconclusive: -19.6%
COc1ccc(CCN2C(=O)C3C4C=CC(C3C2=O)C2C(=O)N(CCc3ccc(OC)c(OC)c3)C(=O)C42)cc1OC (configuration not stated),inactive: 1.6%
C/C(=N\NC(=O)C(O)c1ccccc1)c1ccc(C)s1 (configuration not stated),inconclusive: 2.1%
CC1(c2ccccc2)NC(=O)N(CC(=O)Nc2ccc(N3CCOCC3)cc2)C1=O (configuration not stated),inactive: 0.2%
CC(C)CCC(C)N=Cc1c(O)n(Cc2ccccc2)c(=O)c2ccccc12 (configuration not stated),inactive: -6.1%
Cn1nc(C(C)(C)C)c([N+](=O)[O-])c1C(=O)Nc1ccc(Br)cc1,inconclusive: -22.9%
COc1cc(OC)c(OC)cc1CN1CCN(Cc2ccc(C(F)(F)F)cc2)CC1,inconclusive: -2%
COc1ccc2nc3n(c(=O)c2c1)-c1ncccc1C(=O)NC3Cc1ccccc1 (configuration not stated),inactive: -6.9%
CC(C)CC(=O)NC(=S)Nc1ccccc1N1CCCC1,inconclusive: -9.4%

Additional results

Compound | inhibition
CCCOc1ccc(NC(=O)C2CC(=O)N/C(=N/N=C(C)/C=C/c3ccc(N(C)C)cc3)S2)cc1 (configuration not stated) | inactive: -15.5%
CC(=O)N1C[C@@H](CO)[C@@H](N(C)C(=O)C(C)(C)C)C[C@H]1c1ccccc1 | inactive: 1.8%
O=C(NCCc1ccccc1F)[C@@H]1CSC2c3ccccc3C(=O)N21 (some centres not stated) | inconclusive: 18.4%
COc1ccccc1-c1nnc(SCC(=O)Nc2ccc(N3CCOCC3)cc2)n1C | inactive: -1.4%
Clc1nc(Oc2ccccc2)nc(-c2cn(-c3ccccc3)c3ccccc23)n1 | inconclusive: -74.6%
Cc1ccc(N2CCN(C(=S)c3ccc(-c4ccccc4[N+](=O)[O-])o3)CC2)cc1 | inconclusive: 86.6%
COc1ccccc1C1CCN(c2ccc([N+](=O)[O-])c(OC)c2)CC1 | inconclusive: -29.9%
Cn1c(O)c(C2=NNC(c3ccc(Cl)cc3)C2)c(=O)n(C)c1=O (configuration not stated) | inconclusive: 10.4%
COC(=O)c1ccccc1NC(=O)CN1CCC(NC(=O)c2ccccc2C)CC1 | inactive: -4.5%
CC1CCCCN1CCCn1c(=S)[nH]c2ccccc2c1=O (configuration not stated) | inconclusive: 9%
O=C(CSc1nnc(CNC(=O)c2ccco2)o1)Nc1nc2ccccc2s1 | inactive: 2%
N#C/C(=C\c1c[nH]c2ccccc12)C(=O)NC1CC1 | inconclusive: 28.3%
COc1ccc(C)c(-n2c(N)cc(=O)n(Cc3ccccc3)c2=O)c1 | inconclusive: -81%
Cc1cccn2c(=O)nc(SCC(=O)N3CCCCCC3)nc12 | inconclusive: -13.5%
CCOc1ccc(Nc2nc(NCc3ccco3)nc(N)c2[N+](=O)[O-])cc1 | inconclusive: 119%
CC(=O)Oc1ccc(C(=O)Nc2ccccc2C(=O)Nc2ccc(C(=O)O)cc2)cc1 | inconclusive: 0.5%
N#Cc1ccc(Sc2ccccn2)c([N+](=O)[O-])c1 | inconclusive: 53.7%
CN1C(=O)C(=Cc2ccccc2Oc2ccc(Cl)cc2)C(=O)N(C)C1=O | inactive: -0.2%
O=CNC1(c2ccccc2)CCCCC1 | inactive: 0.4%

Compound | inhibition
Cc1nc(-c2cc(-c3nc(-c4ccc(C(C)(C)C)cc4)no3)no2)cs1 | inconclusive: -14.2%
COc1cc(C(=O)NCCNc2nc3ccc(C)cc3cc2C#N)cc(OC)c1OC | inconclusive: -39.1%
CCCCCCCn1c(NC(=O)CC)nc2ccccc21 | inconclusive: -52.2%
O=C1CN(C(=O)COC(=O)CCc2ccccc2O)c2ccccc2N1 | inactive: -9.5%
CCNC(=O)C1(C)CCN1CCC(=O)c1ccc(Br)cc1 (configuration not stated) | inactive: -6%
CNS(=O)(=O)c1ccc(C(=O)NCC(=O)NCCC(c2ccccc2)c2ccccc2)cc1 | inconclusive: -2.4%
NC(=O)CCCc1nc(-c2ccccc2)no1 | inconclusive: 10.3%
Cc1ccc(-n2ncc3c(=O)n(CC(=O)N(C)C)cnc32)cc1 | inactive: 1.9%
COCC(=O)N1CCC(Oc2ccc(C(=O)N3C[C@@H]4CCC[C@H]3C4)cc2)CC1 | inactive: -9.6%
CC(=O)N(c1nnc(-c2ccc(C)cc2)s1)C1CCCC1 | inactive: 5%
CCN1C(=O)c2ccc(C(=O)Nc3ccc(O)cc3C)cc2C1=O | inconclusive: 24.7%
CCN(CC)S(=O)(=O)c1ccc(NC(=O)c2cnccn2)cc1 | inconclusive: -11.3%
N#Cc1cccc(Oc2ccc(S(=O)(=O)N3CCCC3)cn2)c1 | inconclusive: 1.6%
COc1cccc(NC(=O)N2CCC(C(=O)Nc3ccc(C)cc3C)CC2)c1 | inconclusive: 3.2%
COc1ccc(CC(=O)NCc2ccccc2)cc1OC | inconclusive: -22.4%
COC(=O)c1c(C)oc(C)c1S(=O)(=O)Nc1ccccc1 | inconclusive: 17.3%
Oc1ccccc1OCc1nc2ccccc2s1 | inactive: 0.2%
O=C(CSc1ccc2nnc(-c3ccccn3)n2n1)Nc1ccccc1C(F)(F)F | inactive: 2.8%
O=C(NCCc1c[nH]c2ccccc12)C1CCC(=O)N(CCc2cccc(F)c2)C1 (configuration not stated) | inactive: 1.1%
